Several values for one entry are separate records, joined by “and”; a condition that tells them apart may be missing. Equal entries are not always repeated. The name of at least one read-out is uncertain.
Test system: sebaceous glands of Syrian hamster ears
Assay: Syrian hamster ear model of sebum secretion, HPLC of cholesterol ester and wax ester
Type: in vivo
Settings: topical 1 w/v %, 4 weeks; for % Reduction in CE, change vs. relevant vehicle control: cholesterol ester; for % Reduction in CE, change vs. relevant vehicle control / % Reduction in WE, change vs. relevant vehicle control: twice daily, five days a week, right ear, negative = increase; for Sum CE + WE, change vs. relevant vehicle control: summation of % reduction in CE and in WE; for % Reduction in WE, change vs. relevant vehicle control: wax ester
Protocol: Luderschmidt et al describes an animal model for testing whether compounds are capable of modulating sebum secretion. Arch. Derm. Res. 258, 185-191 (1977). This model uses Syrian hamsters, whose ears contain sebaceous glands. Compounds can be administered to these animals to determine if a test agent is capable of modulating sebum production
Testing for sebum inhibition was carried out in the following manner. Male Syrian hamsters aged 9 to 10 weeks were introduced into the laboratory environment and acclimated for 2 weeks prior to use in the study. Each group consisted of 5 animals and were run in parallel with vehicle and positive controls. Prior to administration, 10 mg of each compound was dissolved in 1 mL of Universal solvent (ethanol/propylene glycol (70/30% v/v) to achieve a final concentration of 1 w/v %.
Animals were dosed topically twice daily, five days a week, for 4 weeks. Each dose consisted of 25 micro liters of vehicle control or drug. The dose was applied to the ventral surfaces of both the right and left ears. All animals were sacrificed approximately 18-24 hours after the final dose. The right ears were collected from each animal and used for sebum analysis.
The ears were prepped for HPLC analysis in the following manner. One 8 mm distal biopsy punch was taken, just above the anatomical “V” mark in the ear to normalize the sample area. The punch was pulled apart. The ventral biopsy surface (the area where the topical dose was directly applied to the sebaceous glands) was retained for testing and the dorsal surface of the biopsy punch was discarded.
Tissue samples were blown with N2 gas and stored at −80° C. under nitrogen until HPLC analysis. In addition to ear samples, an aliquot of each drug and vehicle (at least 250 ul) was also stored at −80° C. for inclusion in the HPLC analysis.
HPLC analysis was carried out on an extract of the tissue sample. Tissue samples were contacted with 3 ml of solvent (a 4:1 admixture of 2,2,4-trimethylpentane and isopropyl alcohol). The mixture was shaken for 15 minutes and stored overnight at room temperature, protected from light. The next morning 1 milliliter of water was added to the sample and shaken for 15 minutes. The sample was then centrifuged at approximately 1500 rpm for 15 minutes. Two ml of the organic phase (top layer) was transferred to a glass vial, dried at 37° C., under nitrogen, for approximately 1 hour, and then lyophilized for approximately 48 hours. The samples were then removed from the lyophilizer and each vial was reconstituted with 600 μl of solvent A (trimethylpentane/tetrahydrofuran (99:1). The samples were then recapped and vortexed for 5 minutes.
200 μl of each sample was then transferred to a pre-labeled 200 μl HPLC vial with 200 μL glass inserts. The HPLC vials were placed in the autosampler tray for the Agilent 1100 series HPLC unit. The Agilent 1100 HPLC system consisted of a thermostated autosampler, a quarternary pump, a column heater, and an A/D interface module. All components were controlled by Agilent ChemStation software. A Waters Spherisorb S3W 4.6×100 mm analytical column was maintained at 30° C. by the Agilent column heater unit. The HPLC autosampler was programmed to maintain the sample temperature at 20° C. throughout the run.
10 uL of each sample was injected in triplicate into the column. Two solvents were used for the solvent gradient. Solvent A was an admixture of trimethylpentane and tetrahydrofuran (99:1). Solvent B was ethylacetate. The gradient utilized is described in the table below: […]
The Sedex 75 Evaporative Light Scattering Detector (ELSD) was operated at 45° C. with a gain of 5, and N2 pressure maintained at 3.1 bar. Analog signal obtained by the instrument was sent to the Agilent A/D interface module where it was converted to a digital output. The conversion was based on a 10000 mAU/volt set point and the data rate was set at 10 Hz (0.03 min). […]

## CC(C)c1cccc(C(C)C)c1NC(=O)CC(=O)N(Cc1ccccc1)C(C)C [Compound 1]
  % Reduction in CE, change vs. relevant vehicle control: 95% and 94%
  Sum CE + WE, change vs. relevant vehicle control: 174%
  % Reduction in WE, change vs. relevant vehicle control: 80%
Listed as 1*
  % Reduction in CE, change vs. relevant vehicle control: 94%
  Sum CE + WE, change vs. relevant vehicle control: 178%
  % Reduction in WE, change vs. relevant vehicle control: 84%

From patent US8409595B2, “Method for decreasing sebum production” (Medicis Pharmaceutical Corporation, priority 2003, dated 2013)
